The list shows a part of the results. Small differences around the control level are noise.

Sequences of proteins named here, by UniProt entry; tags and fusion partners are left off. A change or cut given only in a name is not applied to a line headed by its entry.
UniProt Q9HCS4: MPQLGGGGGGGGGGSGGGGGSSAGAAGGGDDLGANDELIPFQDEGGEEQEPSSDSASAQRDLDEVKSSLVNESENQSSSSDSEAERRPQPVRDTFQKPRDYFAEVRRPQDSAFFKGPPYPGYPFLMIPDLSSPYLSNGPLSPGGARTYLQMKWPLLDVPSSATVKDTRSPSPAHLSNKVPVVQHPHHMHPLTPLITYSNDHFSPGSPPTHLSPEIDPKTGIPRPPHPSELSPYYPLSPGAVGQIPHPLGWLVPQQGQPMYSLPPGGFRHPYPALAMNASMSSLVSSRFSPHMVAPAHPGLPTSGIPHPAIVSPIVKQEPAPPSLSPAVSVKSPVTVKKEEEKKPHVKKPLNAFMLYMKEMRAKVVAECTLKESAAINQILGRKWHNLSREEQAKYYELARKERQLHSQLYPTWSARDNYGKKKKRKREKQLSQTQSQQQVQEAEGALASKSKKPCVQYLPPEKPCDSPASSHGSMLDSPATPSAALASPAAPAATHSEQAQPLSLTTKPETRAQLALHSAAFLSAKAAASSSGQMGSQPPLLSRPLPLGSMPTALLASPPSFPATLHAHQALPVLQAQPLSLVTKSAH
UniProt Q9HA65: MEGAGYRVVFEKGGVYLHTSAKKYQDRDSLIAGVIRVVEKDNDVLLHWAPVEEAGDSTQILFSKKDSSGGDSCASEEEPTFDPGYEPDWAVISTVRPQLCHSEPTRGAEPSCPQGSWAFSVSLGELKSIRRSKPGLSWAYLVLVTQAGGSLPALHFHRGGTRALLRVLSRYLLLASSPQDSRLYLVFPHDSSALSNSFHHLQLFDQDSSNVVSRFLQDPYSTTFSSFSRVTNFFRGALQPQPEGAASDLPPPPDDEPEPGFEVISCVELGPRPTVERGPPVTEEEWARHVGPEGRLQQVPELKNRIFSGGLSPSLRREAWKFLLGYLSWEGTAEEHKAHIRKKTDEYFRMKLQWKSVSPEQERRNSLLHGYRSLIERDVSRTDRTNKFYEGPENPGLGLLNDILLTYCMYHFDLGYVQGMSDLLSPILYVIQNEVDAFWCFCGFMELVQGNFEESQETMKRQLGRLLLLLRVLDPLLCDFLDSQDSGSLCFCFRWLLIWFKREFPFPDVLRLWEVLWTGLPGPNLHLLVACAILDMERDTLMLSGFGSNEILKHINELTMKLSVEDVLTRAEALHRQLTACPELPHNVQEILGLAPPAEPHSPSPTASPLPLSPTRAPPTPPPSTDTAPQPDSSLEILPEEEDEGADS
UniProt Q9NQ48: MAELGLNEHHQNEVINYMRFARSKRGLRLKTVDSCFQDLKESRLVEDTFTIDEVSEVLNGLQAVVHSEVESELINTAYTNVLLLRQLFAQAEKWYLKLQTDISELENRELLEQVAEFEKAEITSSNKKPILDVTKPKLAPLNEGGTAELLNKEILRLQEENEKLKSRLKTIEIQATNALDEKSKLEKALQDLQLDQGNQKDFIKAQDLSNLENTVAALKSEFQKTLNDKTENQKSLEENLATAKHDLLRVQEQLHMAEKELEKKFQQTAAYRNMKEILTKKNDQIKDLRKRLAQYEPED
UniProt Q9H5H4: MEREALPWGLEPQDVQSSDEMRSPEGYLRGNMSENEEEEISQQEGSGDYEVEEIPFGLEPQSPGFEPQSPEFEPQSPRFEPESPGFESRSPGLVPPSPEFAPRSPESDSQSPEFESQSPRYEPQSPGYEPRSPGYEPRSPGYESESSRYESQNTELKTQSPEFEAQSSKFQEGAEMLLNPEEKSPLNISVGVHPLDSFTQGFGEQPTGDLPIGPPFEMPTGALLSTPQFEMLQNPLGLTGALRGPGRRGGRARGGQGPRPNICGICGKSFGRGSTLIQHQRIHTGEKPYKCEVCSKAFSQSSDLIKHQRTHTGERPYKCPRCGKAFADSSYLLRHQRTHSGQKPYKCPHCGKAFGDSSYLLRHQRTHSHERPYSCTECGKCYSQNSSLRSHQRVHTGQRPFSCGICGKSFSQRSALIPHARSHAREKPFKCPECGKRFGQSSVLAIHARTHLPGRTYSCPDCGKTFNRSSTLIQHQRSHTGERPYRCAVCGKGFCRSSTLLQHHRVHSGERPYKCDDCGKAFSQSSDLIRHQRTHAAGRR
UniProt Q9NP74: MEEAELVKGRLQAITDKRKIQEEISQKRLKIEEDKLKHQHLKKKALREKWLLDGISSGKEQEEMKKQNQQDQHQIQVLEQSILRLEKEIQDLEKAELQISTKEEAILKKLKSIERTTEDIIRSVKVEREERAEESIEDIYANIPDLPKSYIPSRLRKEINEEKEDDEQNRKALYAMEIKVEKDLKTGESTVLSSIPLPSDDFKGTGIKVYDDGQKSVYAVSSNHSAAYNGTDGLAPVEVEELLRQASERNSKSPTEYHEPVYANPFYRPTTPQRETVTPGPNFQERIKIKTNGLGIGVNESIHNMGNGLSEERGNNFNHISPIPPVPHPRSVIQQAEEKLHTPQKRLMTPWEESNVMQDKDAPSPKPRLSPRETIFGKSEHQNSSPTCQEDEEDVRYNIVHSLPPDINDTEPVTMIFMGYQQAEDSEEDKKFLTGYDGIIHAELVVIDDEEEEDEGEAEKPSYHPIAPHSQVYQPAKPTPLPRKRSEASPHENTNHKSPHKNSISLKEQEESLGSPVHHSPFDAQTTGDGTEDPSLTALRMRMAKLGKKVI
UniProt Q9H9Y6, whole entry: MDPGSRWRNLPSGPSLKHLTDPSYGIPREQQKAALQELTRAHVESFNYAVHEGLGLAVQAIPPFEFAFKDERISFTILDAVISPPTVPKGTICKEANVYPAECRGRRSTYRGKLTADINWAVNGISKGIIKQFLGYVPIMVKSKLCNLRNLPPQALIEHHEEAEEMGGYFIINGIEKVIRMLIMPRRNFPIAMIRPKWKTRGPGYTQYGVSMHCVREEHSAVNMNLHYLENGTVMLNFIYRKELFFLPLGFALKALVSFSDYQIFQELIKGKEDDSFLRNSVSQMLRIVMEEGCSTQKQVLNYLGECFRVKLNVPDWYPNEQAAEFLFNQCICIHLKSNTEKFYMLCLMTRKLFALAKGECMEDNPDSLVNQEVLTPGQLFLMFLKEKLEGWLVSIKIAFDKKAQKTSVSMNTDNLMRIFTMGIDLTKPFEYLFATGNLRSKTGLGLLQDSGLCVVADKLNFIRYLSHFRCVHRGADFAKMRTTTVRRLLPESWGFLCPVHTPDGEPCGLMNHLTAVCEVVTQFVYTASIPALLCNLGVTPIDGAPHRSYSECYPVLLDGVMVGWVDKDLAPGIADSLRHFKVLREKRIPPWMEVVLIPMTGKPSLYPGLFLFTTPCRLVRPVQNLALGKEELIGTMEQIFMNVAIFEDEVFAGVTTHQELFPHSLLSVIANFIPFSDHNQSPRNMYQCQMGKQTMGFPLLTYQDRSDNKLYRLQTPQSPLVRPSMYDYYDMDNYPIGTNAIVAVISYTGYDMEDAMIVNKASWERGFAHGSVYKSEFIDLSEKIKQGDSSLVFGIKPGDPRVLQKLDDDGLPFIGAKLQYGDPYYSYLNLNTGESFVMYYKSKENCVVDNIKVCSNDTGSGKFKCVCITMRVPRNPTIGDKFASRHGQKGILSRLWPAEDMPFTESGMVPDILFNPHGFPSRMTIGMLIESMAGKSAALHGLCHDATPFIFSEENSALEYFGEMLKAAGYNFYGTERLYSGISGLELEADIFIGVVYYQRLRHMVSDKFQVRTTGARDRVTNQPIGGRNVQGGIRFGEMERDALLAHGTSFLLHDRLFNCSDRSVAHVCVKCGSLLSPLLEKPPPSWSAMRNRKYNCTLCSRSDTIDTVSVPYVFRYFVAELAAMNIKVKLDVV
UniProt Q9H7C9: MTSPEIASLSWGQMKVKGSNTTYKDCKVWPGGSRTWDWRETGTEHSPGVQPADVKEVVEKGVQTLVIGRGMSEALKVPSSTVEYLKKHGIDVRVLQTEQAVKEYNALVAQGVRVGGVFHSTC
UniProt Q9HC35: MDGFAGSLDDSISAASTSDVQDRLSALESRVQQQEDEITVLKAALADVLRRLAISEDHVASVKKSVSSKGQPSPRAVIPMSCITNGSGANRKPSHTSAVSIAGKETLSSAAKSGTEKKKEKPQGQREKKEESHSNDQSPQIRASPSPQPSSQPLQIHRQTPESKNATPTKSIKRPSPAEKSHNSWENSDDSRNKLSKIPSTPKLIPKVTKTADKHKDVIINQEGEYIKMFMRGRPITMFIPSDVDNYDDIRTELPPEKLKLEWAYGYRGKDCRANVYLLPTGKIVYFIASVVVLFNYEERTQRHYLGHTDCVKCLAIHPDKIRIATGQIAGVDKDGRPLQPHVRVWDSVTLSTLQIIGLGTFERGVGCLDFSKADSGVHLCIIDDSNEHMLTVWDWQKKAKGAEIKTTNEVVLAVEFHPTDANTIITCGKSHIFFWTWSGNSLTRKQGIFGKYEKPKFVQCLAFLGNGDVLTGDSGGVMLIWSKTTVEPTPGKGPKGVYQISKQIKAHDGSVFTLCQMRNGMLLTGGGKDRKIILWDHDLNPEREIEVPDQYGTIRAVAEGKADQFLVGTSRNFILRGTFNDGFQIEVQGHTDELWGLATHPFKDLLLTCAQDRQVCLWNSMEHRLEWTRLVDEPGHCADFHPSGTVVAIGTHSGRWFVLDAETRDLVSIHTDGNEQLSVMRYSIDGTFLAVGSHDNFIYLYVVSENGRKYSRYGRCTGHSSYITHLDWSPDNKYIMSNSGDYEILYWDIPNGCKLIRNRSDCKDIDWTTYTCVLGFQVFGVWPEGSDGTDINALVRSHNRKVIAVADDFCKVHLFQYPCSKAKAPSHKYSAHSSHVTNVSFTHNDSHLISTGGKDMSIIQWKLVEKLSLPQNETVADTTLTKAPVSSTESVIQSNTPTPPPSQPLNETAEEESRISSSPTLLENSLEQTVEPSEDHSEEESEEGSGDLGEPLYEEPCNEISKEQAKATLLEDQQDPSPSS

Compound in this assay: CN[C@@H]1C[C@H]2O[C@@](C)([C@@H]1OC)n1c3ccccc3c3c4c(c5c6ccccc6n2c5c31)C(=O)NC4 [staurosporine]
The assay is described as follows: log2 fold change of tryptic peptide abundance, ligand vs vehicle (limited proteolysis) (log2 ratio); higher = more trypsin-susceptible (destabilized). The following applies: ligand concentration: 20 uM; sample: K562 cleared lysate; digestion: 4 min, 22 C (HT-PELSA RT4min, Orbitrap Astral).
As to “UniProt Q9HCS4 (peptide sequence: ESAAINQILGR, peptide start residue: 325)”, the log2 fold change is -0.199. With “TBC1D17 (peptide sequence: MEGAGYRVVFEKGGVYLHTSAK, peptide start residue: 1) (UniProt Q9HA65)”, the log2 fold change came to 0.152. With “LZTFL1 (peptide sequence: NMKEILTK, peptide start residue: 273) (UniProt Q9NQ48)”, the log2 fold change came to 0.399. As to “ZNF768 (peptide sequence: GGQGPRPNICGICGK, peptide start residue: 254) (UniProt Q9H5H4)”, the log2 fold change came to 0.198. Take “PALMD (peptide sequence: EINEEKEDDEQNRK, peptide start residue: 158) (UniProt Q9NP74)”: the log2 fold change was -0.683. With “POLR1B (peptide sequence: KYNCTLCSR, peptide start residue: 1095) (UniProt Q9H9Y6)”, the log2 fold change worked out at 0.347. Next, “UniProt Q9H7C9 (peptide sequence: GMSEALKVPSSTVEYLKK, peptide start residue: 70)”: 0.467; “EML4 (peptide sequence: SHNSWENSDDSR, peptide start residue: 181) (UniProt Q9HC35)”: -0.243.

The values are drawn from the supplement of paper PMC12819154, “High-throughput peptide-centric local stability assay extends protein–ligand identification to membrane proteins, tissues and bacteria” (Nature Structural & Molecular Biology, 2025).
